Results from patent US6667387B1, “HCV core peptides” (priority 1992, dated 2003).

Assay: Detection of biotinylated peptides coated directly, with streptavidin:horseradish peroxidase conjugate
Settings: coating 10 nanograms per milliliter to 3 micrograms per milliliter
In the case of “Leu-Arg-Lys-Ser-Arg-Arg-Phe-Ala-Gln-Ala-Leu-Pro-Val-Trp-Ala-Arg-Pro-Asp-Tyr-Asn [Peptide XVI] (LRKSRRFAQALPVWARPDYN; printed: Leu-Arg-Lys-Ser-Arg-Arg-Phe-Ala-Gln-Ala-Leu-Pro-Val-Trp-Ala-Arg-Pro-Asp-Tyr-Asn)”, the “binding of directly coated biotinylated peptide to the wells of the polystyrene microtiter plate” value (from here on “binding”) is reported as “bind only weakly”. For PQRKTKRNTNRRPQDVKFPG, the “binding” value was “very significant binding to the solid phase”. In the case of SQHLPYIEQGMMLAEQFKQK, the “binding” value is reported as “bind only weakly”.

Ends that are not written are not given here.
